# Data reported in the supplement of paper PMC4604168 (melanoma cell lines).
# Some of the results follow. Many values rest on one well or one pass, so single values are uncertain.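 Imaging used 1,536-well plates; nuclei positive for cleaved PARP by antibody were divided by total DNA-stained nuclei to yield the apoptosis fraction. Doses for screening kept most cells viable, and cell lines differ markedly in resting and induced cleaved-PARP levels.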
# System: WM115
# Experiment: cleaved PARP positive nuclei fraction relative to DMSO control; melanoma cells; higher = more apoptosis
# Settings: library dose: low library concentration; 72 h
row,SMILES,cleaved PARP positive nuclei fraction [%]
1,"O=C(CCCCCCC(=O)Nc1ccccc1)NO [vorinostat] + O=C(Nc1cccc(Cl)c1)Nc1ncc(CCNc2ncnc3ccsc23)s1 [SNS314] (first compound 0.08 µM, partner dose 0.0008 µM)",132
2,"Cn1cncc1[C@@](N)(c1ccc(Cl)cc1)c1ccc2c(c1)c(-c1cccc(Cl)c1)cc(=O)n2C [tipifarnib] + O=C(Nc1ccccc1)c1cc([N+](=O)[O-])ccc1Cl [GW9662] (first compound 0.01 µM, partner dose 2 µM)",72.5
3,"C[C@@H]1CCN(C(=O)CC#N)C[C@@H]1N(C)c1ncnc2[nH]ccc12 + N#Cc1c(O)c2c(-c3ccc(-c4ccccc4O)cc3)csc2[nH]c1=O [A769662] (first compound 1 µM, partner dose 2 µM)",45.3
4,"COCC[n+]1c2c(n(Cc3cnccn3)c1C)C(=O)c1ccccc1C2=O + CN(NC(=O)CC(=O)NN(C)C(=S)c1ccccc1)C(=S)c1ccccc1 [STA4783] (first compound 0.0004 µM, partner dose 0.006 µM)",510
5,"O=C(CCCCCCC(=O)Nc1ccccc1)NO [vorinostat] + COC(=O)c1sccc1S(=O)(=O)Nc1ccc(Nc2ccccc2)cc1OC [GSK0660] (first compound 0.08 µM, partner dose 1 µM)",77.8
6,"CO[C@@H]1[C@H](N(C)C(=O)c2ccccc2)C[C@H]2O[C@]1(C)n1c3ccccc3c3c4c(c5c6ccccc6n2c5c31)C(=O)NC4 [Midostaurin] + CN(NC(=O)CC(=O)NN(C)C(=S)c1ccccc1)C(=S)c1ccccc1 [STA4783] (first compound 0.08 µM, partner dose 0.006 µM)",155
7,"NC(=O)Nc1cc(-c2cccc(F)c2)sc1C(=O)N[C@H]1CCCNC1 + O=C1NC(=O)/C(=C/c2ccc(-c3ccc(F)cc3O)o2)S1 [AS252424] (first compound 0.02 µM, partner dose 1 µM)",160
8,"OCc1c[nH]c2ccccc12 [Indole-3-carbinol] + O=c1cc(-c2cccc3c2Sc2ccccc2S3)oc(N2CCOCC2)c1 [KU55933] (first compound 0.8 µM, partner dose 1 µM)",117
9,"COCC[n+]1c2c(n(Cc3cnccn3)c1C)C(=O)c1ccccc1C2=O + C[C@@H]1CCN(C(=O)CC#N)C[C@@H]1N(C)c1ncnc2[nH]ccc12 [CP690550] (first compound 0.0004 µM, partner dose 1 µM)",77.4
10,"CC(=O)c1c(C)c2cnc(Nc3ccc(N4CCNCC4)cn3)nc2n(C2CCCC2)c1=O [palbociclib] + COc1ccc(-c2ccc3c(N4CCOCC4)nc(N4C[C@@H](C)O[C@@H](C)C4)nc3n2)cc1CO [KU0063794] (first compound 0.04 µM, partner dose 0.02 µM)",126
11,"CC(=O)c1c(C)c2cnc(Nc3ccc(N4CCNCC4)cn3)nc2n(C2CCCC2)c1=O [palbociclib] + COc1ccc(Cl)c(Nc2nc3ccccc3nc2NS(=O)(=O)c2cccc(NC(=O)C(C)(C)N)c2)c1 [XL147] (first compound 0.04 µM, partner dose 0.8 µM)",96.1
12,"C=CCn1c(=O)c2cnc(Nc3ccc(N4CCN(C)CC4)cc3)nc2n1-c1cccc(C(C)(C)O)n1 + Cn1cncc1[C@@](N)(c1ccc(Cl)cc1)c1ccc2c(c1)c(-c1cccc(Cl)c1)cc(=O)n2C [tipifarnib] (first compound 0.02 µM, partner dose 0.01 µM)",664
13,"Cc1cc(N2CCOCC2)cc2[nH]c(-c3c(NC[C@@H](O)c4cccc(Cl)c4)cc[nH]c3=O)nc12 + Cn1cc(/C=C2\C(=O)Nc3cccnc32)c2ccccc21 [GW441756] (first compound 0.2 µM, partner dose 0.4 µM)",46.2
14,"CC(=O)c1c(C)c2cnc(Nc3ccc(N4CCNCC4)cn3)nc2n(C2CCCC2)c1=O [palbociclib] + COc1cc2ncnc(Nc3ccc(Oc4ccccc4)cc3)c2cc1OC [SrcI1] (first compound 0.04 µM, partner dose 2 µM)",152
15,"OCc1c[nH]c2ccccc12 [Indole-3-carbinol] + C[C@@H]1CCN(C(=O)CC#N)C[C@@H]1N(C)c1ncnc2[nH]ccc12 [CP690550] (first compound 0.8 µM, partner dose 1 µM)",89
16,"O=C(CCCCCCC(=O)Nc1ccccc1)NO [vorinostat] + N#Cc1c(O)c2c(-c3ccc(-c4ccccc4O)cc3)csc2[nH]c1=O [A769662] (first compound 0.08 µM, partner dose 2 µM)",69.7
17,"C[C@@H]1CCN(C(=O)CC#N)C[C@@H]1N(C)c1ncnc2[nH]ccc12 + O=S(=O)(c1ccccc1)N(CC(F)(F)F)c1ccc(C(O)(C(F)(F)F)C(F)(F)F)cc1 [T0901317] (first compound 1 µM, partner dose 1.4 µM)",396

row,SMILES,cleaved PARP positive nuclei fraction [%]
1,"NC(=O)Nc1cc(-c2cccc(F)c2)sc1C(=O)N[C@H]1CCCNC1 + COC(=O)c1sccc1S(=O)(=O)Nc1ccc(Nc2ccccc2)cc1OC [GSK0660] (first compound 0.02 µM, partner dose 1 µM)",53.1
2,"C[C@]1(c2nc3c(C(N)=O)cccc3[nH]2)CCCN1 [Veliparib] + O=C(Nc1cccc(Cl)c1)Nc1ncc(CCNc2ncnc3ccsc23)s1 [SNS314] (first compound 1.4 µM, partner dose 0.0008 µM)",209
3,"C[C@]1(c2nc3c(C(N)=O)cccc3[nH]2)CCCN1 [Veliparib] + OCCn1cc(-c2cnc3nnn(Cc4ccc5ncccc5c4)c3n2)cn1 [PF04217903] (first compound 1.4 µM, partner dose 1 µM)",217
4,"COc1cc(Nc2ncc(F)c(Nc3ccc4c(n3)NC(=O)C(C)(C)O4)n2)cc(OC)c1OC [Tamatinib] + CC(C)(C)c1cnc(CSc2cnc(NC(=O)C3CCNCC3)s2)o1 [SNS-032] (first compound 0.4 µM, partner dose 0.01 µM)",73
5,"NC(=O)Nc1cc(-c2cccc(F)c2)sc1C(=O)N[C@H]1CCCNC1 + O=C(Nc1ccccc1)c1cc([N+](=O)[O-])ccc1Cl [GW9662] (first compound 0.02 µM, partner dose 2 µM)",154
6,"C#Cc1cccc(Nc2ncnc3cc(OCCOC)c(OCCOC)cc23)c1 [erlotinib] + Cn1c(Nc2ccc(C(F)(F)F)cc2)nc2cc(Oc3ccnc(-c4ncc(C(F)(F)F)[nH]4)c3)ccc21 [CHIR265] (first compound 0.8 µM, partner dose 0.08 µM)",254
7,"C#Cc1cccc(Nc2ncnc3cc(OCCOC)c(OCCOC)cc23)c1 [erlotinib] + C=CCn1c(=O)c2cnc(Nc3ccc(N4CCN(C)CC4)cc3)nc2n1-c1cccc(C(C)(C)O)n1 [MK1775] (first compound 0.8 µM, partner dose 0.02 µM)",85.8
8,"COCC[n+]1c2c(n(Cc3cnccn3)c1C)C(=O)c1ccccc1C2=O + COC(=O)c1sccc1S(=O)(=O)Nc1ccc(Nc2ccccc2)cc1OC [GSK0660] (first compound 0.0004 µM, partner dose 1 µM)",152
9,"NC(=O)Nc1cc(-c2cccc(F)c2)sc1C(=O)N[C@H]1CCCNC1 + COc1ccc(COc2ccc(Cc3cnc(N)nc3N)cc2OC)cc1 [GW2580] (first compound 0.02 µM, partner dose 1 µM)",72
10,"Cc1cc(N2CCOCC2)cc2[nH]c(-c3c(NC[C@@H](O)c4cccc(Cl)c4)cc[nH]c3=O)nc12 + CN(C)S(=O)(=O)c1ccc2c(c1)/C(=C/c1cc3c([nH]1)CCCC3)C(=O)N2 [SU6656] (first compound 0.2 µM, partner dose 0.4 µM)",377
11,"C[C@@H]1CCN(C(=O)CC#N)C[C@@H]1N(C)c1ncnc2[nH]ccc12 + O=C1NC(=O)/C(=C/c2ccc(-c3ccc(F)cc3O)o2)S1 [AS252424] (first compound 1 µM, partner dose 1 µM)",138
12,"NC(=O)Nc1cc(-c2cccc(F)c2)sc1C(=O)N[C@H]1CCCNC1 + CC(C)CCN1c2nc(Nc3cc(F)c(O)c(F)c3)ncc2N(C)C(=O)C1C [BID1870] (first compound 0.02 µM, partner dose 0.2 µM)",191
13,"CO[C@@H]1[C@H](N(C)C(=O)c2ccccc2)C[C@H]2O[C@]1(C)n1c3ccccc3c3c4c(c5c6ccccc6n2c5c31)C(=O)NC4 [Midostaurin] + Cc1cc([N+](=O)[O-])ccc1NS(=O)(=O)c1cc(Cl)ccc1Cl [FH535] (first compound 0.08 µM, partner dose 1 µM)",119
14,"CO[C@@H]1[C@H](N(C)C(=O)c2ccccc2)C[C@H]2O[C@]1(C)n1c3ccccc3c3c4c(c5c6ccccc6n2c5c31)C(=O)NC4 [Midostaurin] + O=C(O)C(=O)Nc1sc2c(c1C(=O)O)CCNC2 [TCS401] (first compound 0.08 µM, partner dose 1.66667 µM)",47.3
15,"Cn1nnc2c(C(N)=O)ncn2c1=O [temozolomide] + Cn1cc(/C=C2\C(=O)Nc3cccnc32)c2ccccc21 [GW441756] (first compound 2 µM, partner dose 0.4 µM)",384
16,"CC(C)(C)c1cnc(CSc2cnc(NC(=O)C3CCNCC3)s2)o1 + O=C(O)c1ccc(-c2c[nH]c3ncc(-c4ccccc4)cc23)cc1C1CCCC1 [GSK650394] (first compound 0.01 µM, partner dose 0.16 µM)",95.9

# Reprinted at random: 2 records from the list.
row,SMILES,cleaved PARP positive nuclei fraction [%]
2,"Cn1cncc1[C@@](N)(c1ccc(Cl)cc1)c1ccc2c(c1)c(-c1cccc(Cl)c1)cc(=O)n2C [tipifarnib] + O=C(Nc1ccccc1)c1cc([N+](=O)[O-])ccc1Cl [GW9662] (first compound 0.01 µM, partner dose 2 µM)",72.5
8,"COCC[n+]1c2c(n(Cc3cnccn3)c1C)C(=O)c1ccccc1C2=O + COC(=O)c1sccc1S(=O)(=O)Nc1ccc(Nc2ccccc2)cc1OC [GSK0660] (first compound 0.0004 µM, partner dose 1 µM)",152
